Patent publication US8722690B2, “Mesoionic pesticides” (E I du Pont de Nemours and Company, priority 2009, dated 2014)
Where two headings read alike, the source gives them in different places. Some results were stated once for a whole list of compounds, not compound by compound. At least one structure is not confirmed: it was looked up by name or label, or the drawing left a doubt.

Assays:
Format in all cases: in vivo
[1] = tested on: fall armyworm (Spodoptera frugiperda); test: Test B: control of fall armyworm on maize plant, foliar spray; settings: very good to excellent levels of control efficacy
[2] = tested on: diamondback moth (Plutella xylostella); test: Test A: control of diamondback moth on radish plant, foliar spray; settings: 6 days, very good to excellent levels of control efficacy
[3] = tested on: potato leafhopper (Empoasca fabae); settings: 6 days, Soleil bean plant, very good to excellent levels of control efficacy

SMILES	control efficacy: feeding damage (40% or less feeding damage and/or 100% mortality) ([1]; sprayed at 50 ppm)	control efficacy: feeding damage (40% or less feeding damage and/or 100% mortality) ([2]; sprayed at 10 ppm)	control efficacy: feeding damage (40% or less feeding damage and/or 100% mortality) ([2]; sprayed at 50 ppm)	control efficacy: mortality ([3]; sprayed at 10 ppm)	control efficacy: mortality ([3]; sprayed at 50 ppm)	control efficacy: feeding damage (40% or less feeding damage and/or 100% mortality) ([1]; sprayed at 10 ppm)
Cc1cccn2c(=O)c(-c3ccc(F)cc3Cl)c([O-])[n+](Cc3cnc(Cl)s3)c12 [Compound 166]	≤ 40%	≤ 40%	≤ 40%	≥ 80%	≥ 80%	–
Cc1cc(-c2c([O-])[n+](Cc3cnc(Cl)s3)c3c(C)cccn3c2=O)cc(C(F)(F)F)c1 [Compound 167]	≤ 40%	≤ 40%	≤ 40%	–	≥ 80%	≤ 40%
Cc1cccn2c(=O)c(-c3ccc(F)c(Br)c3)c([O-])[n+](Cc3cnc(Cl)s3)c12 [Compound 170]	≤ 40%	≤ 40%	≤ 40%	≥ 80%	≥ 80%	≤ 40%
Cc1cccn2c(=O)c(-c3ccc(F)c(OC(F)(F)F)c3)c([O-])[n+](Cc3cnc(Cl)s3)c12 [Compound 173]	≤ 40%	≤ 40%	≤ 40%	≥ 80%	≥ 80%	≤ 40%
CCc1cccn2c(=O)c(-c3ccccc3F)c([O-])[n+](Cc3cnc(Cl)s3)c12 [Compound 179]	≤ 40%	≤ 40%	≤ 40%	–	≥ 80%	–
Cc1ccc(Cl)cc1-c1c([O-])[n+](Cc2cnc(Cl)s2)c2c(C)cccn2c1=O [Compound 181]	≤ 40%	≤ 40%	≤ 40%	–	≥ 80%	–
COc1ccc(C)cc1-c1c([O-])[n+](Cc2cnc(Cl)s2)c2c(C)cccn2c1=O [Compound 182]	≤ 40%	≤ 40%	≤ 40%	≥ 80%	≥ 80%	–
Cc1ccc(F)c(-c2c([O-])[n+](Cc3cnc(Cl)s3)c3c(C)cccn3c2=O)c1 [Compound 183]	≤ 40%	≤ 40%	≤ 40%	≥ 80%	≥ 80%	≤ 40%
CCc1cccn2c(=O)c(-c3cc(Cl)cc(C(F)(F)F)c3)c([O-])[n+](Cc3cnc(Cl)s3)c12 [Compound 188]	≤ 40%	≤ 40%	≤ 40%	–	≥ 80%	–
Cc1cccn2c(=O)c(-c3cccc(-c4ccc(F)cc4Cl)c3)c([O-])[n+](Cc3cnc(Cl)s3)c12 [Compound 189]	≤ 40%	≤ 40%	≤ 40%	≥ 80%	≥ 80%	≤ 40%
Cc1cccn2c(=O)c(-c3cccc(-c4ccc(Br)cc4)c3)c([O-])[n+](Cc3cnc(Cl)s3)c12 [Compound 193]	≤ 40%	≤ 40%	≤ 40%	–	≥ 80%	≤ 40%
Cc1cccc(-c2c([O-])[n+](Cc3cnc(Cl)s3)c3c(C)cccn3c2=O)c1F [Compound 196]	≤ 40%	≤ 40%	≤ 40%	≥ 80%	≥ 80%	≤ 40%
Cc1ccc(-c2c([O-])[n+](Cc3cnc(Cl)s3)c3c(C)cccn3c2=O)cc1 [Compound 205]	≤ 40%	≤ 40%	≤ 40%	≥ 80%	≥ 80%	–
Cc1cccn2c(=O)c(-c3cccc(-c4ccc(Cl)c(F)c4)c3)c([O-])[n+](Cc3cnc(Cl)s3)c12 [Compound 207]	≤ 40%	≤ 40%	≤ 40%	–	≥ 80%	≤ 40%
Cc1cccn2c(=O)c(-c3ccc(F)c(-c4ccc(Cl)cc4F)c3)c([O-])[n+](Cc3cnc(Cl)s3)c12 [Compound 209]	≤ 40%	≤ 40%	≤ 40%	–	≥ 80%	≤ 40%
COc1ccc(-c2ccc(Cl)cc2)cc1-c1c([O-])[n+](Cc2cnc(Cl)s2)c2c(C)cccn2c1=O [Compound 210]	≤ 40%	≤ 40%	≤ 40%	≥ 80%	≥ 80%	≤ 40%
COc1ccc(-c2ccc(Cl)cc2F)cc1-c1c([O-])[n+](Cc2cnc(Cl)s2)c2c(C)cccn2c1=O [Compound 211]	≤ 40%	≤ 40%	≤ 40%	≥ 80%	≥ 80%	≤ 40%
Cc1cccn2c(=O)c(-c3cc(-c4ccc(Cl)cc4F)ccc3F)c([O-])[n+](Cc3cnc(Cl)s3)c12 [Compound 214]	≤ 40%	≤ 40%	≤ 40%	≥ 80%	≥ 80%	≤ 40%
Cc1cccn2c(=O)c(-c3cc(-c4ccc(Cl)cc4)ccc3F)c([O-])[n+](Cc3cnc(Cl)s3)c12 [Compound 215]	≤ 40%	≤ 40%	≤ 40%	–	≥ 80%	≤ 40%
Cc1cc(C)cc(-c2c([O-])[n+](Cc3cnc(Cl)s3)c3c(C)cccn3c2=O)c1 [Compound 227]	≤ 40%	≤ 40%	≤ 40%	≥ 80%	≥ 80%	≤ 40%
Cc1cccn2c(=O)c(-c3ccc(F)c(Cl)c3)c([O-])[n+](Cc3cnc(Cl)s3)c12 [Compound 228]	≤ 40%	≤ 40%	≤ 40%	≥ 80%	≥ 80%	≤ 40%
Cc1cccn2c(=O)c(-c3cccc(-c4cc(OC(F)(F)F)ccc4F)c3)c([O-])[n+](Cc3cnc(Cl)s3)c12 [Compound 231]	≤ 40%	≤ 40%	≤ 40%	≥ 80%	≥ 80%	≤ 40%
Cc1cc(Br)cc(-c2c([O-])[n+](Cc3cnc(Cl)s3)c3c(C)cccn3c2=O)c1 [Compound 235]	≤ 40%	≤ 40%	≤ 40%	–	≥ 80%	≤ 40%
Cc1cccn2c(=O)c(-c3ccc(C#N)cc3)c([O-])[n+](Cc3cnc(Cl)s3)c12 [Compound 236]	≤ 40%	≤ 40%	≤ 40%	≥ 80%	≥ 80%	–
